In PubChem BioAssay AID720540 (National Center for Advancing Translational Sciences (NCATS), 2013):
Out of some 1,300 compounds screened, about 460 (35%) were called active. The inconclusive results got no clear call from the source; some entries with a clear call stand among them for comparison. The call rests on the fitted dose curve; in most records, active means well fitted inhibition curve with a large enough effect; inconclusive means small, poorly fitted or top-dose-only effect; inactive means flat fitted curve, though single readings scatter. Where the call is inconclusive, the potency comes from a doubtful curve fit.

Protein sequences, listed by entry. Tags and fused reporters are not part of them. Lines headed by an entry give the natural chain unless they say otherwise; changes in a name come on top.
UniProt O00167: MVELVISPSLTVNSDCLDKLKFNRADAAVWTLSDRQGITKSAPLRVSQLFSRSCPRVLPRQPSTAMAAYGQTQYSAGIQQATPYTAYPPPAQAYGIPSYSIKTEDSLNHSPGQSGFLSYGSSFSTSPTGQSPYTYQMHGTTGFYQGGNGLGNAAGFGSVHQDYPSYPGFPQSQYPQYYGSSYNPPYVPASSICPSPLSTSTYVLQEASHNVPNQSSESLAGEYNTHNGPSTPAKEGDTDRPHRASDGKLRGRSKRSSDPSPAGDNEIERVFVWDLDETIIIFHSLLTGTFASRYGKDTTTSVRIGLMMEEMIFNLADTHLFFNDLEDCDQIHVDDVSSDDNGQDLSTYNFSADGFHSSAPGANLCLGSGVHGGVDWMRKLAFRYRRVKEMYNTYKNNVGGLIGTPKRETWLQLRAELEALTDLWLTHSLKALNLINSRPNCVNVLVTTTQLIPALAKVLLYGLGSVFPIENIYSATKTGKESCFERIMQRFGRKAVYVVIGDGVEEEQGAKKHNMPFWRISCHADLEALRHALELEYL

Each molecule was assayed against Protein phosphatase EYA2 (Homo sapiens) (UniProt O00167) (assay: qHTS for Inhibitors of the Phosphatase Activity of Eya2: Confirmatory Assay for Cherry-picked Compounds). Settings: purified EYA2 phosphatase activity, qHTS confirmation; activity change, negative = inhibition: at 46.1 µM (top of the series).
Summary of the method: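 Eya2 (0.2 uM working solution) preincubated 10 min at room temperature with compound in pH 7.5 HEPES buffer with MgCl2, BSA, DTT. OMFP added (50 uM working solution), 10 min more; fluorescence 485/525 nm, normalized to EGTA and DMSO.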
Further: nearly all actives have a fitted effect of over 65% in size.
Potency means the concentration at half of the fitted maximal effect.
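Wherever activity change, negative = inhibition is given: 0% = DMSO wells and -100% = EGTA control giving full inhibition.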

SMILES | Potency | activity change, negative = inhibition
N=C1S/C(=C\c2ccco2)C(=O)N1c1nccs1 | inconclusive: 16.9 µM [inhibitor, partial curve] | 
Cc1cccn2c(=O)c3cc(C(=O)NCc4ccccc4)c(=N)n(CCCN4CCOCC4)c3nc12 | inconclusive: 21.3 µM [inhibitor, partial curve] | 
CC1(C)CC(=O)c2c(oc3ccc(NS(=O)(=O)c4cccc5cccnc45)cc23)C1 |  | inactive: -15.7%
Cc1cc(C(=O)CSc2nc(N)cc(N)n2)c(C)n1C1CC1 | inconclusive: 23.9 µM [inhibitor, single point] | 
CCOc1ccc(NC(=O)COc2ccc3c(c2)CCC3)cc1OC |  | inactive: -12.8%
O=c1nc2cccc3c2=c(/c1=C(\O)c1ccccc1)c1ccccc1c3=O | inconclusive: 6.75 µM [inhibitor, partial curve] | 
O=C(Nc1cc(S(=O)(=O)N2CCOCC2)ccc1Cl)c1cc(=O)c2ccccc2o1 |  | inactive: -22.8%
CN[C@H]1C[C@H]2c3[nH]c4ccc(-c5ccc(OC)cc5)cc4c3CCN2C(=O)[C@H]1[C@H](C)O | inconclusive: 15.1 µM [inhibitor, single point] | 
O=C(Oc1ccc(C(=S)N2CCOCC2)cc1Cl)c1ccccc1F | active: 8.49 µM | 
COc1ccc(N2c3ccccc3CN(Cc3ccccc3)CC2Cc2cc(OC)c(OC)c(OC)c2)cc1 (stereo not drawn) | inconclusive: 15.1 µM [inhibitor, partial curve] | 
Cc1c(C(=O)O)cccc1-c1ccc(/C=C2\SC(=O)NC2=O)o1 |  | inactive: -17.9%
O=C(Nc1ncc(Cc2ccccc2Cl)s1)c1ccc(-c2cccc([N+](=O)[O-])c2)o1 |  | inactive: -23%
COc1ccc(Cl)cc1NC(=O)C(C)N1CCc2ccccc21 (stereo not drawn) | inconclusive: 13.5 µM [inhibitor, partial curve] | 
O=C(O)CSCc1nc2cccnc2n1C1CCCCC1 |  | inactive: -11.2%
CCCCC(=O)NC(c1ccco1)c1cc(Cl)c2cccnc2c1O (stereo not drawn) | active: 3.38 µM | 
CCOc1ccc2[nH]c3nc(SCC(=O)NC4CCCC4)nnc3c2c1 |  | inactive: -10.1%
CCOC(=O)NNc1nncc2ccccc12 |  | inactive: 3.63%
O=C(C1CCN(c2nnc(-n3cccc3)s2)CC1)N1CCOCC1 |  | inactive: -6.36%
Cc1coc2c(C)c3oc(=O)c(CCC(=O)N4CCC(C(=O)NCCCC(=O)O)(c5ccccc5)CC4)c(C)c3cc12 | inconclusive: 19 µM [inhibitor, partial curve] | 
COCCN1CCn2c(nc3cc(Nc4nnc(C)c5ccccc45)ccc32)C1 | inconclusive: 19 µM [inhibitor, partial curve] | 
CCCc1cc(=O)[nH]c(SCC(=O)Nc2ccc(C)cc2)n1 |  | inactive: -8.55%
Cn1nc(C(=O)Nc2nnc(C3CC3)s2)c2ccccc2c1=O | inconclusive: 21.3 µM [inhibitor, single point] | 
O=C(O)c1ccc(Nc2cnc3ccccc3n2)cc1 |  | inactive: -19.6%
COc1ccc(CCn2c(=N)c(C(=O)NCc3ccco3)cc3c(=O)n4ccccc4nc32)cc1OC | active: 15.1 µM | 

By substructure, those above with an aryl thioether with sulfur outside any ring
SMILES | Potency | activity change, negative = inhibition
Cc1cc(C(=O)CSc2nc(N)cc(N)n2)c(C)n1C1CC1 | inconclusive: 23.9 µM [inhibitor, single point] | 
CCOc1ccc2[nH]c3nc(SCC(=O)NC4CCCC4)nnc3c2c1 |  | inactive: -10.1%
CCCc1cc(=O)[nH]c(SCC(=O)Nc2ccc(C)cc2)n1 |  | inactive: -8.55%

(continued)

SMILES | Potency | activity change, negative = inhibition
COc1cccc(C(=O)Nc2ccc3[nH]c(=O)[nH]c3c2)c1OC | inconclusive: 21.3 µM [inhibitor, partial curve] | 
COc1ccccc1-n1c(SCC(=O)Nc2cc(C)on2)nc2c(c1=O)SCC2 |  | inactive: -20.4%
C=CCN1C(=O)/C(=C\c2ccc(OC(=O)c3ccco3)c(OC)c2)SC1=S | inconclusive: 19 µM [inhibitor, partial curve] | 
COc1ccc(Br)cc1CNC(=O)c1ccc2c(c1)N(C)CCS2 | inconclusive: 15.1 µM [inhibitor, partial curve] | 
CN1N/C(=C\c2ccccc2)N=C2C(=O)N(C)C(=O)N=C21 | active: 12 µM | 
Cc1c(C(=O)/C=C/N(C)C)nnn1-c1ccc(Cl)cc1Cl |  | inactive: -1.95%
COc1ccc(Nc2nc(C(C)(C)C)nc3c2nnn3Cc2ccccc2Cl)cc1OC |  | inactive: -23.1%
CCOc1ccc2[nH]cc(C(=O)NCc3ccccc3)c(=O)c2c1 | inconclusive: 8.49 µM [inhibitor, partial curve] | 
Cc1ccc(Nc2nnc(SCC(=O)NC(Cc3c[nH]c4ccccc34)C(=O)O)s2)cc1 (stereo not drawn) | inconclusive: 19 µM [inhibitor, partial curve] | 
CCOc1ccc(C2C3=C(Nc4nc(N)[nH]c(=O)c42)c2ccccc2C3=O)cc1 (stereo not drawn) | active: 2.69 µM | 
COc1cccc(C2c3[nH]c4ccccc4c3CCN2C(=O)c2ccccc2F)c1OC (stereo not drawn) | inconclusive: 16.9 µM [inhibitor, partial curve] | 
CCCC(=O)Nc1ccc(NC(=S)NC(=O)c2cccs2)cc1 |  | inactive: -22%
CN(C)CCNc1nc2sc3c(c2c(=O)n1CCc1ccccc1)CCCCC3 | inconclusive: 19 µM [inhibitor, partial curve] | 
COC(=O)c1cc2c(ccc3ccccc32)oc1=O | active: 7.57 µM | 
COc1cc(S(=O)(=O)O)c(C)cc1N=Nc1c(O)ccc2cc(S(=O)(=O)O)ccc12 | inconclusive: 16.9 µM [inhibitor, partial curve] | 
CS(=O)(=O)c1ccccc1-c1nnc(NC(=O)c2ccc(S(=O)(=O)N3CCCC3)cc2)o1 | inconclusive: 23.9 µM [inhibitor, single point] | 
Cc1cc(C)nc(-n2nc(C)cc2Nc2ccccc2)n1 | inconclusive: 19 µM [inhibitor, partial curve] | 
Fc1cccc(Nc2ncnc3[nH]ncc23)c1 | inconclusive: 19 µM [inhibitor, single point] | 
CN(C)Cc1ccccc1Sc1cccc2ccccc12 | inconclusive: 12 µM [inhibitor, partial curve] | 
COc1ccccc1CNC(=O)c1ccc2c(=O)n(CCCN3CCCC3=O)c(=S)[nH]c2c1 | inconclusive: 21.3 µM [inhibitor, single point] | 
CCOC(=O)c1nc(Nc2ccc(Nc3ccccc3)cc2)c2ccccc2n1 | inconclusive: 19 µM [inhibitor, partial curve] | 
O=C(NCc1ccco1)C1CC2CCC1C2 (stereo not drawn) |  | inactive: -4.68%
O=C(/C=C/c1ccco1)Oc1cccc2cccnc12 | active: 15.1 µM | 
O=C(/C=C/c1ccccc1)Oc1cccc2cccnc12 | active: 6.75 µM | 
